Here are results for eight compounds from PubChem BioAssay (NCATS).

Amino acid sequences for entries named in this document (tags omitted). A change or cut given only in a name is not applied to a line headed by its entry.
UniProt P50135: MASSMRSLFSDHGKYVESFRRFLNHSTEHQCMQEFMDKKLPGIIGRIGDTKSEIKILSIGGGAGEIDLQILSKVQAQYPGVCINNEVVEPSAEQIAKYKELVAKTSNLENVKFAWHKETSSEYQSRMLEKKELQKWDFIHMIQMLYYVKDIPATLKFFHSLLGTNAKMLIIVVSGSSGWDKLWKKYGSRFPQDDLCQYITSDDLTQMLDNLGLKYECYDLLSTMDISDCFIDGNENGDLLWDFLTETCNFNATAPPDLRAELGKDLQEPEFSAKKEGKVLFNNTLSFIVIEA

Structures are written as SMILES. Several values for one entry are separate records, joined by “and”; a condition that tells them apart may be missing. Equal values may be shown once. The list shows a part of the results. The main result of the screen is listed elsewhere. These columns were measured beside it and carry no call. For part of these data: The list favours compounds with an active or inconclusive main result. The note in brackets gives the kind of curve behind each potency; many fits are weak.

Experiment [1] in a line: Validation of Assay for Modulators of Lamin A Splicing (AID 1459). The following applies: Lamin A splicing dual RFP/GFP fluorescence reporter, ratio. In short, it runs like this:
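Splicing correction read as GFP (500-530 nm) over DsRed2 (575-640 nm) object intensity after 48 h compound exposure of reporter HeLa S3 clones (600 cells/well, 2% FBS medium); ancitabine and cycloheximide titrations, 0.5% DMSO as vehicle.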

Experiment [2] can be described thus: qHTS Assay for Lipid Storage Modulators (AID 1519). The following applies: Drosophila S3 cells, BODIPY lipid droplet/cell ratio, laser cytometry, cells loaded with oleic acid. In short, it runs like this:
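Cells seeded at 5,000 per well were treated with compounds over a concentration series and loaded with oleic acid (400 uM, as added). Lipid droplet fluorescence (488 nm excitation, 500-530 nm channel) was read by laser-scanning cytometry and normalized to 20 uM Triacsin C.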

A short description of experiment [3]: A High-Content qHTS Against Drug Library for the Identification of Small Molecules that Inhibit DYT1 Early Onset Primary Dystonia-Associated Cell Pathology (AID 1645839). The following applies: HEK293 Flp-In EGFP-delE TorsinA, punctate imaging, 48 h; measured here: cell count cytotoxicity. The gist of the method:
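High-content imaging quantified EGFP-TorsinA mislocalization in HEK293-derived cells inducibly expressing DYT1 mutant torsinA, after 48 h exposure to compound given together with tetracycline induction. Cell count served as a toxicity channel alongside %pathology.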
(In qHTS, concentration-response curves come from the screen itself.)

Experiment [4] can be described thus: qHTS Assay for Inhibitors of PDE-IV (AID 607). The following applies: HEK293 ACTOne CNG channel cells, membrane potential fluorescence; measured here: parental cell counter-screen. In short, it runs like this: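 HEK293 ACTOne cells with CNG channel (1000/well), endogenous PDE4; membrane potential dye, compounds up to 22.9 uM final. Fluorescence Ex 535/Em 590; RO 20-1724 (100 uM final) as reference.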

Experiment [5] in a line: qHTS Assay for Modulators of Human Peripheral Myelin Protein 22 (PMP22) Expression/Activity (AID 1967). The following applies: Cell-based PMP22 reporter, dual-color luciferase ratio. In short, it runs like this:
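Readout is the corrected green/red luminescence ratio after 24 h compound exposure, normalised to untreated cells (0%). Engineered MSC80 mouse Schwann cells express green luciferase from the mouse Pmp22 promoter and red luciferase from EF-alpha as internal control.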

Experiment [6] is described as follows: qHTS Validation Assay to Find Inhibitors of Chronic Active B-Cell Receptor Signaling (AID 485345). The following applies: ABC-DLBCL cells, chronic BCR signaling reporter. The gist of the method:
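Read-out: ratio of filter-corrected green (IkappaBalpha fusion) to red (native) luciferase signal in doxycycline-induced TMD8 cells after 4 h at 37C. Titration spanned 46 uM–3 nM; Data were normalised to basal cells and 10 uM MG-132 wells.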

Experiment [7] is described as follows: Nrf2 qHTS screen for inhibitors: Validation (AID 493153). The following applies: A549 ARE-Fluc reporter, 18-24 h; AC50: CellTiter-Fluor fluorescence read, measured here: cytotoxicity CellTiter-Fluor AC50; viability change: measured here: cytotoxicity max response. In short, it runs like this:
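A549 ARE_Fluc, 5% FBS OPTI-MEM; cpd titration, 18-24 h, 37°C/5% CO2. Read 1: CellTiter-Fluor (Ex 405/Em 525), cytotox. Read 2: luciferase lum, Nrf2 activity.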

A short description of experiment [8]: qHTS drug screen for cell cycle checkpoint inhibitors in PARPi-resistant BRCA-mutant ovarian cancer cell lines. (AID 1963452). The following applies: PEO1/OlaR viability, CellTiter-Glo luminescence, 96 h. In short, it runs like this:
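PEO1, PEO4 and PEO1/OlaR ovarian cancer cells, 600 per well, exposed 96 h at 37C to a dilution series. Viability read by CellTiter-Glo luminescence, normalized to DMSO and empty wells; activity summarized as Z-AUC.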

Experiment [9] can be described thus: qHTS for identification of novel therapeutic agents for treatment of microphthalmiaassociated transcription factor (MiT) renal cell carcinoma (RCC) (AID 1963991). The following applies: CellTiter-Glo, 48 h; for z-score: stronger effect = lower value. In short, it runs like this: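 Three TFE3-fusion RCC lines (UOK109, UOK124, UOK145), 500 cells/well in complete medium, were treated with MIPE 4.0 compounds for 48 hours at 37 C. Viability was by CellTiter-Glo luminescence, normalized to DMSO (100%) and empty wells (0%); curves fitted over 11 concentrations.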

For experiment [10], the target named is Histamine N-methyltransferase (Homo sapiens) (UniProt P50135). Put plainly: Confirmatory Screen for Target Class Profiling of Small Molecule Inhibitors of Methyltransferases (AID 1745852). The following applies: MTase-Glo luminescence, SAH detection, recombinant enzyme; measured here: HNMT inhibition potency.
A short description of experiment [11]: NCATS anti-infectives library activity on the primary C. elegans qHTS viability assay (AID 1745855). The following applies: C. elegans worm area imaging. The gist of the method:
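GFP read-out by 488 nm laser cytometry at day 0, 3 and 7, gated on object perimeter, area and peak intensity, scored viability of PE254-GFP-FLuc worms exposed to compound in S medium with bacterial capsules at 21 °C.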

[12] abbreviates: measured here: cell count channel max response.
The mark [13] stands for this setting: measured here: cell number channel AC50.
Where [14] appears, read: measured here: lipid (BODIPY) channel AC50.
The mark [15] stands for this setting: measured here: lipid channel max response.
Where [16] appears, read: measured here: green reporter channel AC50, mouse Pmp22 promoter in mouse Schwann cells.
[17] abbreviates: measured here: red reporter channel AC50, EF-alpha promoter control reporter in MSC80 mouse Schwann cells.
Where [18] appears, read: measured here: CBR control luciferase (viability counter).
Where [19] appears, read: measured here: PEO1 parental viability.
Where [20] appears, read: TFE3-RCC viability, measured here: UOK124 cell viability.
[21] abbreviates: TFE3-RCC viability, measured here: UOK145 cell viability.

As usually defined, the AC50 is the concentration at which the activity in the assay is half-maximal. As for `COc1ccc([C@@H]2Sc3ccccc3N(CCN(C)C)C(=O)[C@@H]2OC(C)=O)cc1`, the AC50 in experiment [1] (measured here: GFP channel) is 35.5 µM [falling, single point]; in experiment [1] (measured here: RFP channel) it was 35.5 µM [falling, single point]; in experiment [2] (setting [13]), 14.1 µM [rising, single point] and 4.47 µM [falling, full curve, poor fit]; in experiment [2] (setting [14]), 4.47 µM [falling, full curve, poor fit]. The max response was 36.7% and -17.5% in [2] (setting [12]); 48.8% and -17% in [2] (setting [15]).
With `N[C@H](C(=O)O)c1cc(O)cc(O)c1`, the AC50 was 22.4 µM [falling, partial curve] in [1] (measured here: GFP channel) and 22.4 µM [falling, partial curve] in experiment [1] (measured here: RFP channel).
As to `CC(=O)OCC1=C(C(=O)O)N2C(=O)[C@@H](NC(=O)Cc3cccs3)[C@H]2SC1`, the half-maximal activity concentration (AC50) in [1] (measured here: GFP channel) was 15.8 µM [rising, partial curve]; in experiment [1] (measured here: RFP channel), 35.5 µM [rising, single point]; in experiment [2] (setting [13]), 39.8 µM [rising, single point]; in experiment [2] (setting [14]) it was 39.8 µM [rising, single point]; in [3], 15.8 µM [rising, single point]. Also, the max response in experiment [2] (setting [12]) is 50.4%; in experiment [2] (setting [15]), 54%.
For `N[C@@H](CC(=O)O)C(=O)O`, the AC50 in [1] (measured here: GFP channel) is 35.5 µM [falling, single point]; in [1] (measured here: RFP channel), 35.5 µM [falling, single point].
As for `Oc1ccc(-c2nc(-c3ccc(F)cc3)c(-c3ccncc3)[nH]2)cc1`, the concentration at half-maximal activity (AC50) in experiment [4] is 15.8 µM [falling, partial curve]; in experiment [1] (measured here: GFP channel) it was 1.12 µM [falling, full curve]; in experiment [1] (measured here: RFP channel), 1.12 µM [falling, full curve]; in experiment [2] (setting [13]), 3.16 µM [rising, full curve]; in experiment [2] (setting [14]) it was 4.47 µM [rising, partial curve]; in experiment [5] (setting [16]) it was 33.8 µM [falling, partial curve]. In addition, the AC50 in experiment [5] (setting [17]) was 26.9 µM [falling, full curve]; in experiment [6] (measured here: CBG/CBR ratio read-out) it was 20.6 µM [falling, partial curve]; in experiment [6] (setting [18]), 0.0731 µM [falling, full curve]; in [8] (setting [19]) it was 17.4 µM [falling, single point]; in experiment [8] (measured here: PEO4 viability), 12.3 µM [falling, partial curve]; in experiment [9] (setting [20]), 37.2 µM [falling, single point]. Besides, in [9] (setting [21]), the AC50 is 29.6 µM [falling, single point]. The max response in [2] (setting [12]) was 95.8% and 1.66%; in [2] (setting [15]) it was 126% and -0.15%. The viability change in experiment [7] is 6.98%. Moreover, the z-score in [9] (TFE3-RCC UOK109 viability, measured here: UOK109 Z-AUC) was 1.16; in [9] (TFE3-RCC viability, measured here: UOK124 Z-AUC) it was 2.18; in experiment [9] (TFE3-RCC viability, measured here: UOK145 Z-AUC) it was 0.932.
One may read the IC50 as the concentration needed to halve the response being measured. Regarding `N=C(N)SCCc1cnc[nH]1`, the concentration at half-maximal activity (AC50) in [1] (measured here: GFP channel) is 8.91 µM [rising, partial curve, poor fit]; in [1] (measured here: RFP channel) it was 25.1 µM [falling, single point]; in experiment [2] (setting [13]), 15.8 µM [rising, single point]; in [2] (setting [14]) it was 20 µM [rising, single point]. Moreover, the max response in [2] (setting [12]) is 9.92%; in experiment [2] (setting [15]), 15.6%. For the same compound, the IC50 in [10] is 15.3 µM [falling, partial curve].
With `O=C1c2c(O)ccc(O)c2C(=O)c2c(NCCNCCO)ccc(NCCNCCO)c21`, the concentration at half-maximal activity (AC50) in experiment [1] (measured here: GFP channel) was 20 µM [falling, partial curve, poor fit]; in experiment [1] (measured here: RFP channel), 7.08 µM [falling, partial curve, poor fit]; in experiment [2] (setting [13]), 2.51 µM [falling, partial curve, poor fit]; in experiment [2] (setting [14]), 2.82 µM [falling, partial curve, poor fit]; in experiment [5] (setting [16]), 2.13 µM [falling, full curve]; in [5] (setting [17]), 26.9 µM [falling, full curve]. Besides, the AC50 is 18.4 µM [falling, partial curve] in experiment [6] (setting [18]); 14.6 µM [falling, partial curve, poor fit] in experiment [7]; 11.5 µM [falling, partial curve, poor fit] in experiment [11] (day 7, measured here: worm number); 14.5 µM [falling, partial curve, poor fit] in experiment [11] (day 7, measured here: worm number, day 3); 0.195 µM [falling, full curve] in experiment [8] (setting [19]); 0.389 µM [falling, full curve, poor fit] in [8] (measured here: PEO4 viability). The AC50 in [9] (setting [20]) is 0.209 µM [falling, full curve]; in experiment [9] (setting [21]), 0.296 µM [falling, full curve]. The max response in [2] (setting [12]) was -24.1%; in [2] (setting [15]), -24.8%. Further, the viability change in experiment [7] is -45.5%.
For `OC[C@H]1O[C@@H](n2cnc3cncnc32)[C@H](O)[C@@H]1O`, the AC50 in [1] (measured here: GFP channel) was 17.8 µM [rising, single point]; in experiment [1] (measured here: RFP channel) it was 17.8 µM [rising, single point]; in experiment [2] (setting [13]), 3.16 µM [falling, full curve, poor fit]; in experiment [2] (setting [14]), 3.16 µM [falling, full curve, poor fit]. Also, the max response in experiment [2] (setting [12]) worked out at 8.27%; in [2] (setting [15]), 9.74%.
